# According to PubChem BioAssay AID504834 (National Center for Advancing Translational Sciences (NCATS), 2011):
# Out of some 320,000 compounds screened, about 22,000 (6.9%) were called active. The inconclusive results got no clear call from the source; some entries with a clear call stand among them for comparison. The call rests on the fitted dose curve; in most records, active means well fitted inhibition curve with a large enough effect; inconclusive means small, poorly fitted or top-dose-only effect, or another doubt; inactive means no such curve, though single readings can be large or run the other way. A potency beside an inconclusive call is a rough fit, not a confirmed value.
# Experiment: Primary qHTS for delayed death inhibitors of the malarial parasite plastid, 96 hour incubation
# Settings: P. falciparum luciferase reporter growth; series mostly up to 28.7 µM
# Method in brief: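 Compounds incubated with erythrocytes infected by luciferase-expressing P. falciparum (2% hematocrit, 0.05% parasitemia final) for 96 hours, 37 C in 5% CO2. Growth inhibition scored as decreased luciferase luminescence.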
# Potency means the concentration at half of the fitted maximal effect.
row,SMILES,Potency
1,Cc1ccc(CNC(=S)Nc2ccc(OC(F)F)cc2C)cc1,"inconclusive: 18.5 µM [inhibitor, single point]"
2,C[C@@]12C(=O)N(Cc3ccc(-c4ccccc4)cc3)CC(=O)N1[C@H](/C=C/c1ccccc1)[C@@H]1C(=O)N(c3ccccc3)C(=O)[C@@H]12,inactive
3,CC1(C)CC(=O)c2sc(NC(=O)CN3CCOCC3)nc2C1,inactive
4,Cc1nn(-c2ccccc2)c(Cl)c1C(=O)OCC(=O)N(C)c1c(N)n(Cc2ccccc2)c(=O)[nH]c1=O,"inconclusive: 10.4 µM [inhibitor, single point]"
5,COc1ccc2c(c1OC)C(=O)N1c3ccccc3C(=O)N(c3ccccc3)C21 (stereo not given),active: 10.4 µM
6,Cc1onc(C(=O)N2CCN(c3ccccc3)CC2)c1[N+](=O)[O-],"inconclusive: 0.131 µM [inhibitor, full curve, poor fit]"
7,COc1ccc(NC(=O)CCCn2c(=O)c3sccc3n(Cc3ccc(C)cc3C)c2=O)cc1,active: 8.28 µM
8,COCCCC1CCN(C(=O)C2CCC(=O)N(Cc3ccccc3F)C2)CC1 (stereo not given),"inconclusive: 18.5 µM [inhibitor, single point]"
9,COCCCNC(=S)N1CCCC(c2nc3cc(C)c(C)cc3[nH]2)C1 (stereo not given),"inconclusive: 16.5 µM [inhibitor, single point]"
10,Cc1cc(N2CCOCC2)nc2cc(O)ccc12,inactive
11,COc1cc(NCc2ccccc2)c2ncn(C(C)C)c2c1,"inconclusive: 1.17 µM [inhibitor, full curve, poor fit]"
12,CC(=O)Cc1cc(O)c2ccccc2c1OC(=O)c1ccc(Br)cc1,active: 5.86 µM
13,O=C(CSc1nc2ccccc2[nH]1)Nc1ccc2c(c1)OCCO2,inactive
14,COc1ccc(CNC(=O)N2CCN(c3ccc(F)cc3)CC2)cc1,inactive
15,COC(=O)c1cc(OC)c(OC)cc1N1C(=O)CC(C)(C)CC1=O,inactive
16,COc1ccc(N(CC(=O)NCc2ccccc2OC)S(=O)(=O)c2ccccc2)cc1,"inconclusive: 10.4 µM [inhibitor, partial curve, poor fit]"
17,Cc1cc(-c2ccc(C(C)C)c(S(=O)(=O)N3CCC(C)CC3)c2)on1,"inconclusive: 9.28 µM [inhibitor, partial curve]"
18,COc1ccc(/C=N/NC(=S)NCCc2ccccc2)cc1,"inconclusive: 13.1 µM [inhibitor, single point]"
19,CCOc1ccc(C(=O)CC(C(=O)O)N2CCCCC2)cc1 (stereo not given),"inconclusive: 0.522 µM [inhibitor, partial curve, poor fit]"
20,COc1ccc(F)c(CN(C)CC2CCCN(CCc3ccc(F)cc3)C2)c1 (stereo not given),"inconclusive: 18.5 µM [inhibitor, single point]"

# Sorted by formula weight (descending): part of the list above.
row,SMILES,Potency
2,C[C@@]12C(=O)N(Cc3ccc(-c4ccccc4)cc3)CC(=O)N1[C@H](/C=C/c1ccccc1)[C@@H]1C(=O)N(c3ccccc3)C(=O)[C@@H]12,inactive
12,CC(=O)Cc1cc(O)c2ccccc2c1OC(=O)c1ccc(Br)cc1,active: 5.86 µM
15,COC(=O)c1cc(OC)c(OC)cc1N1C(=O)CC(C)(C)CC1=O,inactive
